In PubChem BioAssay (NCATS) one finds AC50 data, which are given here for 34 molecules.

The structures appear in SMILES notation. The list shows a part of the results. Further columns of the screen follow, without active or inactive calls. The list favours compounds with an active or inconclusive main result. Words in brackets tell the shape of the fitted curve; partial curves, single points and poor fits give uncertain potencies.

The nature of the test: S16 Schwann cell PMP22 intronic element beta-lactamase assay (AID 624044). As to conditions: S16 rat Schwann cells, PMP22 element beta-lactamase FRET, 24 h; measured here: 460 nm blue channel. An outline of the steps: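 Beta-lactamase reporter under a PMP22 intronic regulatory element in stable S16 rat Schwann cells; 24 h compound exposure. 460 nm blue signal normalized between DMSO (0%) and potassium clavulanate, with 535 nm FRET tracking viability; curves classed by r2 and response.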
Regarding `CCCCCCOc1ccc(C(=N)N(CCCC)CCCC)c2ccccc12`, the concentration at half-maximal activity (AC50) (commonly the concentration giving half of the maximal activity seen) is 11.2 µM [falling, partial curve, poor fit].
In the case of `O=C(O)c1ccc(N[C@@H]2OC[C@@H](O)[C@@H](O)[C@@H]2O)cc1` it was 25.1 µM [rising, single point]; in that of `CCCCC(CC)COS(=O)(=O)O` (centres undefined), 12.6 µM [falling, single point].
Then `CC(C)(O/N=C(\C(=O)N[C@@H]1C(=O)N2C(C(=O)[O-])=C(C[n+]3ccccc3)CS[C@@H]12)c1csc(N)n1)C(=O)O`, with 10.7 µM [falling, single point]; and `CC12C=CC(=O)C=C1[C@@H](F)CC1C2C(O)CC2(C)C1CC[C@]2(O)C(=O)CO` (some centres undefined), with 5.62 µM [falling, full curve, poor fit]; and `CCC(=O)c1ccc2c(c1)N(CCCN1CCN(CCO)CC1)c1ccccc1S2`, with 1.58 µM [falling, full curve, poor fit].
Regarding `O=C(Nc1ccc(Oc2ccc(Cl)cc2)c(Cl)c1)c1cc(I)cc(I)c1O`, the AC50 was 14.1 µM [falling, single point].
For the molecule `CCOC(=O)c1c(N)sc2c1CCN(Cc1ccccc1)C2`, the half-maximal activity concentration (AC50) is 0.199 µM [falling, full curve, poor fit].
With `CCCCCCCCCCCCCCCCOCCOCCOCCOCCOCCOCCOCCOCCOCCOCCOCCOCCOCCOCCOCCOCCOCCOCCOCCOCCO`, the concentration at half-maximal activity (AC50) is 15.8 µM [falling, partial curve].
`O=C(O)CCn1c2c(c3ccccc31)C[C@H](NS(=O)(=O)c1ccc(F)cc1)CC2`: the concentration at half-maximal activity (AC50) was 0.0224 µM [falling, full curve].
For `CCC(C)n1ncn(-c2ccc(N3CCN(c4ccc(OCC5COC(Cn6cncn6)(c6ccc(Cl)cc6Cl)O5)cc4)CC3)cc2)c1=O` (centres undefined), the AC50 was 14.1 µM [falling, partial curve, poor fit].
Take `Nc1ccc(C(=O)Nc2ccccc2N)cc1`: the half-maximal activity concentration (AC50) is 15.8 µM [falling, partial curve, poor fit].
For the molecule `COCc1c(C(C)C)nc(C(C)C)c(/C=C/[C@@H](O)C[C@@H](O)CC(=O)O)c1-c1ccc(F)cc1`, the concentration at half-maximal activity (AC50) was 19.9 µM [falling, partial curve].
Then `CCN(CC)CCC(=O)N1c2ccccc2Sc2ccc(Cl)cc21`, with 25.1 µM [rising, single point]; and `CC1(C)C[C@@H]1C(=O)N/C(=C\CCCCSC[C@H](N)C(=O)O)C(=O)O`, with 0.0794 µM [falling, full curve, poor fit].
With `CC1=C(/C=C/C(C)=C/C=C/C(C)=C/C=C/C=C(C)/C=C/C=C(C)/C=C/C2=C(C)CCCC2(C)C)C(C)(C)CCC1`, the AC50 was 12.6 µM [rising, partial curve].
Turning to `CC1(C)OC2CC(=O)OC[C@@]23C1CC(=O)[C@]1(C)C3CC[C@@]2(C)C(c3ccoc3)OC(=O)C3O[C@@]321` (some centres undefined), the AC50 is 3.55 µM [falling, full curve, poor fit].
In the case of `CC(=O)C1(O)Cc2c(O)c3c(c(O)c2C(OC2CC(N)C(O)C(C)O2)C1)C(=O)c1c(O)cccc1C3=O` (centres undefined) it was 0.0999 µM [falling, full curve]; in that of `Clc1ccccc1-c1nc(-c2ccncc2)no1`, 7.07 µM [falling, partial curve, poor fit]; in that of `N=C(N)N1CCc2ccccc2C1`, 0.0355 µM [falling, full curve, poor fit].
As for `O=C(O)C1=C(CSc2nnnn2CS(=O)(=O)O)CS[C@@H]2[C@H](NC(=O)[C@H](O)c3ccccc3)C(=O)N12`, the concentration at half-maximal activity (AC50) is 1.78 µM [falling, full curve, poor fit].
Then `NCC1CCC(N)C(O[C@@H]2C(O)[C@H](O[C@H]3OC(CO)C(O)C(N)C3O)[C@@H](N)C[C@H]2N)O1` (some centres undefined), with 4.46 µM [falling, partial curve, poor fit]; and `O=C(NNCS(=O)(=O)O)c1ccncc1`, with 7.07 µM [falling, full curve].
In the case of `c1ccc(-c2nc[nH]c2-c2ccccc2)cc1` it was 19.9 µM [falling, partial curve, poor fit]; in that of `CC(N)C(=O)NCC(=O)NC1CSSCC(C(=O)O)NC(=O)C(CO)NC(=O)C(C(C)O)NC(=O)C(Cc2ccccc2)NC(=O)C(C(C)O)NC(=O)C(CCCCN)NC(=O)C(Cc2c[nH]c3ccccc23)NC(=O)C(Cc2ccccc2)NC(=O)C(Cc2ccccc2)NC(=O)C(CC(N)=O)NC(=O)C(CCCCN)NC1=O` (centres undefined), 14.1 µM [falling, single point].
In the case of `CCC(C)C1NC(=O)C(Cc2ccc(O)cc2)NC(=O)C(N)CSSCC(C(=O)N2CCCC2C(=O)NC(CC(C)C)C(=O)NCC(N)=O)NC(=O)C(CC(N)=O)NC(=O)C(CCC(N)=O)NC1=O` (centres undefined), the AC50 was 1.41 µM [falling, full curve, poor fit].
For `COc1cc(C(=O)N2CCCCCCC2)cc(OC)c1OC`, the concentration at half-maximal activity (AC50) was 9.99 µM [rising, full curve, poor fit].
Then `CO[C@]12C(COC(N)=O)C3=C(C(=O)C(C)=C(N)C3=O)N1CC1NC12` (some centres undefined), with 7.07 µM [falling, partial curve]; and `O=C(N/N=C/c1ccccc1O)c1ccncc1`, with 28.2 µM [falling, single point]; and `Nc1ccc2cc3ccc(N)cc3nc2c1`, with 12.6 µM [falling, full curve, poor fit].
As to `CCOc1ccc(N=Nc2ccc(N)cc2N)cc1`, the AC50 is 8.91 µM [falling, partial curve, poor fit].
`Cc1c(Cn2ccnc2)c2ccccc2n1CCC(=O)O`: the half-maximal activity concentration (AC50) is 12.6 µM [falling, single point].
On to `FCOC(C(F)(F)F)C(F)(F)F`, for which the AC50 was 0.891 µM [falling, full curve, poor fit].
With `COc1cc([C@H]2c3cc4c(cc3[C@@H](O[C@H]3O[C@H]5CO[C@@H](C)O[C@H]5[C@@H](O)[C@@H]3O)[C@@H]3COC(=O)[C@H]23)OCO4)cc(OC)c1O`, the concentration at half-maximal activity (AC50) was 3.98 µM [falling, full curve].
